Among the data in article PMC5547156 are binding values, retold here.

Protein sequences, listed by entry. Tags and fused reporters are not part of them.
UniProt P01101: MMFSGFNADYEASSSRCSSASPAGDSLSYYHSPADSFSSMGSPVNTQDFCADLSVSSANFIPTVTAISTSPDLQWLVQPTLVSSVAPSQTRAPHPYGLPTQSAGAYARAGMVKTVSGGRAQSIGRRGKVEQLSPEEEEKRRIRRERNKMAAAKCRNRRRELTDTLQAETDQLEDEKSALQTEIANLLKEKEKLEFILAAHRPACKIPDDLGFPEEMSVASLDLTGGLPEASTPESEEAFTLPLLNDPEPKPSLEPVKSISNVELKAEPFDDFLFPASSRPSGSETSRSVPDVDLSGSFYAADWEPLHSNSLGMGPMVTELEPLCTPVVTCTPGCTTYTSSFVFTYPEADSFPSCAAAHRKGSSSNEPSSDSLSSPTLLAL
UniProt P05627: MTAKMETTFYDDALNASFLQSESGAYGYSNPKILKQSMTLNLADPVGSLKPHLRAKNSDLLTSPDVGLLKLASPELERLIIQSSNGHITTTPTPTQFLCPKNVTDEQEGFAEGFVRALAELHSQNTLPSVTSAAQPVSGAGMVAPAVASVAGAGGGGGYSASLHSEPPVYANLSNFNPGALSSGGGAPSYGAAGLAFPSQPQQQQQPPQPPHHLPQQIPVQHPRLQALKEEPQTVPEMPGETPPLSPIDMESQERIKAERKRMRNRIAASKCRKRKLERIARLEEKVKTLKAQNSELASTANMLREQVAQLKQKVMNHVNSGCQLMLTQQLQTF

The target of the test is c-Fos (mouse (endogenous in murine myoblasts)) (UniProt P01101). Briefly: co-IP; immunoprecipitation with anti-c-Fos antibodies for 24 h, immunoblot for c-Jun; cells exposed to HIMF.

These are yes or no findings as the source states them, for the method shown. Binding seen in cells or lysates may run through a third protein. Some results given as binding are weak or reduced against the parent protein; the word gives no strength.

Turning to c-Jun (from UniProt P05627 1-334), the binding result was “binds”.
